{"source": "patent US9272034B2", "about": "“Treatment of conditions related to shock” (The Regents of the University of California, priority 2007, dated 2016)", "system": "MMPs", "test": "MMP blockade in spontaneously hypertensive rats (SHR)", "type": "in vivo", "details": "5.4 mg/kg per day", "note": "At least one compound was matched to its structure with a doubt left."}
{"compound": "C[C@H]1c2cccc(O)c2C(=O)C2=C(O)[C@]3(O)C(=O)C(C(N)=O)=C(O)[C@@H](N(C)C)[C@@H]3[C@@H](O)[C@@H]21", "note": "[doxycycline]", "values": [{"measurement": "blood glucose levels", "result": "normalizes"}, {"measurement": "blood pressure", "result": "reduces"}, {"measurement": "enhanced microvascular oxidative stress", "result": "reduces"}, {"measurement": "glycohemoglobin levels", "result": "normalizes"}, {"measurement": "protease activity in plasma and microvessels", "result": "reduces"}, {"measurement": "proteolytic cleavage of the insulin receptor", "result": "blocks"}, {"measurement": "reduced glucose transport", "result": "blocks"}]}
